Record: PubChem BioAssay AID1224828 (NIAID, 2016)

Purpose: 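Regulators linking TLR4 signalling to p65 nuclear translocation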 (primary screen)
Cells: mouse RAW264.7 G9 macrophage reporter cells (GFP-p65, Tnf promoter-mCherry)
Reagent: siRNA pool against mouse genes, 100 nM
Time to read-out: 2 days siRNA transfection, then 40 min LPS before fixation
Challenge: LPS (Salmonella minnesota R595) at 10 ng/ml
Measurement: 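Microscopy ratio of nuclear to perinuclear-ring GFP-p65 signal, scaled to the plate median; gene score is the average of two replicate robust z-scores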
Reading the numbers: p65 translocation robust z-score: higher = more nuclear NF-kappaB p65 after LPS than the plate median; nuclear/cytoplasmic p65 ratio: higher = more nuclear NF-kappaB p65
Rule for the call: 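Active if robust z is above 3.3 (negative regulators) or below -1.56, the Tlr4 control median (positive regulators); activity score 50 or more; control wells not called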
Calls: active = hit (p65 shift raised or lowered); inactive = no clear change
Here is one part, drawn at random, of about 17,000 deposited reagents. In the full data, 762 (4.5%) got an active call. 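Active calls include both raised and lowered p65 entry, mostly lowered; wells with fewer than 50 cells lack a z-score.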 The raw values are shown without normalisation. Entries without a mark were called inactive.

gene knocked down	p65 translocation robust z-score	nuclear/cytoplasmic p65 ratio, rep 1	nuclear/cytoplasmic p65 ratio, rep 2	low cell count flag
Adgrf3	0.08	1.48	1.63	enough cells to score
Nol9		1.06	1.2	fewer than 50 cells per well; well left out of scoring
Ehd1	0.41	1.56	1.38	enough cells to score
1700041G16Rik	0.94	1.31	1.54	enough cells to score
Ptrh1	0.52	1.49	1.31	enough cells to score
Apoo	0.91	1.6	1.63	enough cells to score
Wasf1	0.2	1.6	1.57	enough cells to score
Slc72a1	0.81	1.78	1.65	enough cells to score
Zbbx	0.53	1.42	1.6	enough cells to score
Odf2l	-0.06	1.44	1.66	enough cells to score
Tyw2	-0.21	1.26	1.23	enough cells to score
Shd		1.11	1.27	fewer than 50 cells per well; well left out of scoring
Trdn	0.61	1.48	1.23	enough cells to score
Irx5	0.24	1.56	1.37	enough cells to score
Med30	-0.95	1.24	1.02	enough cells to score
Grin2d	-0.85	1.24	1.34	enough cells to score
Stx7	-0.85	1.23	1.2	enough cells to score
Kcne4	-0.7	1.44	1.33	enough cells to score
Ccl21b	-0.92	1.57	1.51	enough cells to score
C730034F03Rik	2.83	2.01	2.25	enough cells to score
Mybbp1a	-0.82	1.29	1.28	enough cells to score
Isg15	0.33	1.59	1.55	enough cells to score
Shkbp1		0	1.13	fewer than 50 cells per well; well left out of scoring
Klhl11	1.29	1.75	1.59	enough cells to score
Wnt8b	0.18	1.64	1.43	enough cells to score
Kat7	-2.39 (active)	1.39	0.981	enough cells to score
Ubqln1	1.6	1.76	1.7	enough cells to score
Fcrl2	-0.76	1.6	1.53	enough cells to score
Nxf1		0	0.944	fewer than 50 cells per well; well left out of scoring
Nfkbie	1.07	1.59	1.55	enough cells to score
LOC67527	0.36	1.55	1.53	enough cells to score
Zfp513	0.56	1.47	1.32	enough cells to score
Arhgap31	1.08	1.72	2	enough cells to score
Flnc	-0.74	1.47	1.53	enough cells to score
C5ar1		1.16	1.38	fewer than 50 cells per well; well left out of scoring
Kcns1	0.21	1.46	1.45	enough cells to score
Vmn1r148	1.03	1.5	1.36	enough cells to score
Cxcl1	-1.01	1.34	1.46	enough cells to score
Gstt1	0.32	1.45	1.44	enough cells to score
Vil1	-0.95	1.4	1.35	enough cells to score
H2-Q1	0.31	1.47	1.42	enough cells to score
Itga5	-0.74	1.44	1.23	enough cells to score
Pgk2	0.51	1.82	1.4	enough cells to score
Ubr3	0.99	1.54	1.63	enough cells to score
Ccer1		1.51	1.23	fewer than 50 cells per well; well left out of scoring
Serpina3m	-0.14	1.33	1.29	enough cells to score
Kdm4d		1.03	1.31	fewer than 50 cells per well; well left out of scoring
Unc80	2.38	1.78	1.83	enough cells to score
Mppe1	2.26	2.13	1.95	enough cells to score
Srsf4	1.03	1.59	1.33	enough cells to score
Mageb3	2.67	2.09	1.98	enough cells to score
Ubxn2a	1.37	1.52	1.43	enough cells to score
Sox5	1.29	1.53	1.43	enough cells to score
Adam15	-0.78	1.48	1.52	enough cells to score
Pcolce	-1.45	1.32	1.16	enough cells to score
Mapk8ip1	0.41	2.37	1.43	enough cells to score
4932425I24RIK		1.31	1.24	fewer than 50 cells per well; well left out of scoring
Cpz	-0.7	1.42	1.25	enough cells to score
Eef1b2	0.4	1.59	1.36	enough cells to score

Records above whose target name starts with I or i (3):
gene knocked down	p65 translocation robust z-score	nuclear/cytoplasmic p65 ratio, rep 1	nuclear/cytoplasmic p65 ratio, rep 2	low cell count flag
Irx5	0.24	1.56	1.37	enough cells to score
Isg15	0.33	1.59	1.55	enough cells to score
Itga5	-0.74	1.44	1.23	enough cells to score
